Data on six molecules can be found in US20120309934A1, “INTRACELLUAR TARGETING BIPODAL PEPTIDE BINDER” (priority 2009, published 2012).

Results are given in words; binding and its absence hold for the method and conditions named.

Among the targets are Avidin; TNFa; CD7-Trx; Visfatin; myoglobulin; CD7; lysozyme.
What all share (test): phage ELISA, absorbance at 450 nm

B1: Peptide 1 specific to VEGF, bipodal-peptide binder (peptide)
peptide: HANFFQGSWTWENGKWTWKGWKYNQS
With B1, the binding entry in the test with Avidin and with TNFa was “no binding” in each case.

B2: Peptide 1 specific to HSA, bipodal-peptide binder (peptide)
peptide: AASPYKGSWTWENGKWTWKGGWRMKM
B2: the binding entry in the test with TNFa, with CD7-Trx and with Visfatin was “no binding” throughout.

B3: Peptide 1 specific to nAchR, bipodal-peptide binder (peptide)
peptide: EASFWLGSWTWENGKWTWKGKGTLNR
Regarding B3, the binding result in the test with Avidin and with myoglobulin was “no binding” in each case.

B4: STAT3-specific bipodal-peptide binder Peptide 2 (peptide)
peptide: HGFQWPGSWTWENGKWTWKGAYQFLK
In the case of B4, the binding result in the test with TNFa was “no binding”.

B5: Peptide 1 specific to MyD88, bipodal-peptide binder (peptide)
peptide: HSHAFYGSWTWENGKWTWKGNPGWWT
Consider B5, for which the binding result in the test with TNFa and in the test with CD7 was “no binding” in each case.

B6: Peptide 2 specific to fibronectin ED-B, bipodal-peptide binder with tryptophan zipper (peptide)
peptide: HCSSAVGSWTWENGKWTWKGIIRLEQ
In the case of B6, the binding entry with lysozyme, with TNFa, with myoglobulin and with Visfatin was “no binding” in each case.
